No constants are given. Whether binding was seen depends on the method and setting. Some binding calls cover weakened binding; strength is not graded here.
Molecular target: recombinant CD47 protein (UniProt Q08722)
Assay: SPR; recombinant CD47 coupled to CM5 chip

Chains of the proteins cited; added tags and fusions are not shown. Residues count along the entry.
UniProt Q08722, residues 19-139: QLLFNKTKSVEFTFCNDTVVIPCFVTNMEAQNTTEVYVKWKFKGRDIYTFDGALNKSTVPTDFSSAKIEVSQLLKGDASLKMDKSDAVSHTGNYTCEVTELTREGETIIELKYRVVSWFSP

| binding | Binder |
| --- | --- |
| binds | SV4 (designed binder) MEEELQIIQPDLSVSVAAGESAILHCTITSLFPVGPIQWFRGAGPARVLIYNQRQGPFPRVTTVSETTKRENMDFSISISNITPADAGTYYCIKFRKGSPDTEFLSGAGTELSVRAKPS |
| binds | SV4-DSPE (protein) MEEELQIIQPDLSVSVAAGESAILHCTITSLFPVGPIQWFRGAGPARVLIYNQRQGPFPRVTTVSETTKRENMDFSISISNITPADAGTYYCIKFRKGSPDTEFLSGAGTELSVRAKPS |

— patent publication US20230322893A1, “CD47 BINDER AND LIPOSOME COMPLEX FOR CANCER TREATMENT” (priority 2020, published 2023)
